Experimental data taken from PubChem BioAssay AID720504 (National Center for Advancing Translational Sciences (NCATS), 2013).
The campaign covered roughly 360,000 compounds. About 10,000 (2.8%) were called active. Inconclusive means that the source gave no clear call. Such entries were picked first, then a sample of the others. Calls follow the shape of the dose curve; as a rule, active = well fitted inhibition curve with a large enough effect; inconclusive = small, poorly fitted or top-dose-only effect; inactive = flat fitted curve, though single readings scatter. A potency beside an inconclusive call is a rough fit, not a confirmed value.

By UniProt entry, the sequences of proteins in these tests, tags left out.
UniProt P53350, whole entry, looked up: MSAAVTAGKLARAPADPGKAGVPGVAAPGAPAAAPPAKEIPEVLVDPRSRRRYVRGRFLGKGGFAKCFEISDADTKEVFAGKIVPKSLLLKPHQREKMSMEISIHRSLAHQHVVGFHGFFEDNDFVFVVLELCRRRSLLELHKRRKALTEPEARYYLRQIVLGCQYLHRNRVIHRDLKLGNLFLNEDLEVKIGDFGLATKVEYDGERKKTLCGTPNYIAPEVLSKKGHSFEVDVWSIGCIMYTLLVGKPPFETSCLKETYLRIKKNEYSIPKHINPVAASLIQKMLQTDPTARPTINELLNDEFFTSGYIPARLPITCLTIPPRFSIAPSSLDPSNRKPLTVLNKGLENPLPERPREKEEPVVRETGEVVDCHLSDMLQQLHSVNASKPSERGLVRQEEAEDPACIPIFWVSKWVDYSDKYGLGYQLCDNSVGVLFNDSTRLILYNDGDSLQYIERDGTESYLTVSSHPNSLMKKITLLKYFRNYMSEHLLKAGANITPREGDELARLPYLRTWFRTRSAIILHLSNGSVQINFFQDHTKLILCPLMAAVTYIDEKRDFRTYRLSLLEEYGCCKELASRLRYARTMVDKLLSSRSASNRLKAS

biological target: Serine/threonine-protein kinase PLK1 (Homo sapiens) (UniProt P53350); assay: qHTS for Inhibitors of PLK1-PDB (polo-like kinase 1 - polo-box domain): Primary Screen; conditions: Plk1 PBD binding of FITC phosphopeptide, fluorescence polarization; also: nearly all actives have a fitted effect of over 65% in size; as to max response, negative = inhibition: series mostly up to about 57 µM
% is scaled to controls: 0 for no effect and ±100 for the full control effect; potency is read from the fitted curve at half-maximal effect.

SMILES	Potency	max response, negative = inhibition
N=c1c[n+](N2CCOCC2)[n-]o1	inconclusive: 29.9 µM [inhibitor, partial curve]	
CC(C)(CNC(=O)c1cc(=O)[nH]c2ccccc12)N1CCOCC1	inconclusive: 21.2 µM [inhibitor, partial curve]	
O=C(NCC1CC1)c1onc(CSc2nc3ccccc3[nH]2)c1C(=O)NCC1CC1	inconclusive: 37.7 µM [inhibitor, single point]	
CCOC(=O)c1c(NC(=O)C2COc3ccccc3O2)sc2c1CCN(Cc1ccccc1)C2 (stereo not given)		inactive: 3.32%
COc1cc(NC(=S)Nc2cccnc2)cc(OC)c1	active: 23.8 µM	
N#CC1=C(N)C(C#N)(C#N)[C@H](c2cccnc2)[C@H]2CN(C(=O)OCc3ccccc3)CC=C12		inconclusive: -34% [inhibitor]
CCCCOc1ccc(N(CC(=O)NC(C)(C)CC)C(=O)CCC(=O)Nc2ccccn2)cc1	inconclusive: 23.8 µM [inhibitor, single point]	
N#C/C(=C\c1c(F)cccc1Cl)S(=O)(=O)c1ccccn1	inconclusive: 23.8 µM [inhibitor, partial curve, poor fit]	
CCn1cc(C(=O)O)c(=O)c2cnc(N3CCN(C(=S)NC(=O)c4ccc(Br)cc4)CC3)nc21	inconclusive: 75.2 µM [inhibitor, partial curve]	
CC(C)c1ccc(C(=O)NCCCN(C)C)cc1		inactive: -8.76%
CS/C(N)=N/N=C/c1cc(Br)cc(Br)c1O		inactive: -8.6%
COCCCN(CC(=O)Nc1ccc(N2CCOCC2)cc1)S(=O)(=O)c1ccc(Cl)cc1	inconclusive: 37.7 µM [inhibitor, single point]	
Cc1ccc(S(=O)(=O)NN(Cc2ccccc2)Cc2ccccc2)cc1	inconclusive: 21.2 µM [inhibitor, partial curve]	
S=C(CSc1ccccc1)Nc1cccc2ccccc12	active: 10.6 µM	
NC(=O)C1(N2CCCCC2)CCN(Cc2nc3ccccc3c(=O)[nH]2)CC1	inconclusive: 21.2 µM [inhibitor, partial curve]	
COc1ccc(/C=N/n2c(COc3ccccc3)n[nH]c2=S)cc1OC	active: 18.9 µM	
CCOC(=O)CNCCC(=O)c1ccc(Br)cc1	active: 11.9 µM	
Cc1cc(NC(=O)CSc2nnnn2-c2ccc(C(C)C)cc2)no1	active: 26.7 µM	
C=C1C(=O)[C@]23C[C@H]1CCC2[C@@]1(C)C(C[C@@H]3O)[C@](C)(C(=O)OC)CC[C@@H]1O (stereo not given in full)	inconclusive: 13.4 µM [inhibitor, partial curve]	
CC(C)=CC(=O)N1CCC(N2CCC(C(=O)NCC3CCCO3)CC2)CC1 (stereo not given)	inconclusive: 23.8 µM [inhibitor, single point]	
Cc1ccc(-c2c(C)sc(NC(=O)C3C4CCC(O4)C3C(=O)O)c2C(=O)OC(C)C)cc1 (stereo not given)	inconclusive: 23.8 µM [inhibitor, partial curve]	
C/C(=N\Nc1ccc(F)cc1)c1ccc(N2CCOCC2)c(F)c1	inconclusive: 29.9 µM [inhibitor, partial curve]	
COc1ccc(-c2noc3c2-c2nc(C(C)C)sc2CC3)cc1	inconclusive: 21.2 µM [inhibitor, single point]	

SMILES	Potency	max response, negative = inhibition
CC1CCN(C(=O)CSc2nnc3c(n2)[nH]c2ccccc23)CC1		inactive: -20.1%
C=C1C(=O)C23C(O)C1CCC2C12CCCC(C)(COC(C)=O)C1C(O)C3(O)OC2 (stereo not given)	active: 15 µM	
COc1ccc(OC)c(S(=O)(=O)N2CCCC(C(=O)NCc3cccnc3)C2)c1 (stereo not given)		inactive: -8.29%
CCOC(=O)Nc1ccccc1N1C(=O)c2ccccc2C1=O	inconclusive: 23.8 µM [inhibitor, single point]	
Cc1ccc(/C=N/Nc2ccc(C(=O)O)cc2)s1		inactive: -25.8%
CC1(C)Cc2c(c(-c3ccco3)[nH]c(=O)c2C#N)CS1	inconclusive: 18.9 µM [inhibitor, partial curve]	
CN(CC(=O)Nc1ccccc1Cl)C(=O)C1CSC2(C)CCC(=O)N12 (stereo not given)		inactive: -5.88%
CC1=C(C(=O)Nc2ccccc2)C(c2cccs2)C(C#N)=C(SCC#N)N1 (stereo not given)	inconclusive: 26.7 µM [inhibitor, single point]	
COc1cccc(C(=O)N/N=C/c2ccc(Oc3ccc([N+](=O)[O-])cn3)c(OC)c2)c1	inconclusive: 29.9 µM [inhibitor, partial curve]	
CCOC(=O)c1c(C)n(-c2ccc(OC)cc2)c2ccc(O)c(CN(C)C)c12	active: 29.9 µM	
Cc1ccc(S(=O)(=O)Nc2cc(Cl)c(O)c3ncccc23)cc1	inconclusive: 37.7 µM [inhibitor, single point]	
CCOC(=O)CSc1nc(C)c2cc(C)c(C)cc2n1		inactive: -21.7%
NC(=S)N/N=C/c1ccc(-n2nncc2-c2ccc(Cl)cc2)cc1		inconclusive: -31.5% [inhibitor]
O=C1NC(c2ccccc2)C(C(=O)c2cccs2)C(O)(C(F)(F)F)N1 (stereo not given)		inactive: -6.48%
Cc1sc(NC(=O)/C=C/C(=O)O)c(C(N)=O)c1-c1ccc(C(C)(C)C)cc1	active: 26.7 µM	
CCCNC1(C(N)=O)CCN(Cc2ccccc2)CC1		inactive: -13.3%
C[N+](C)(CCOc1ccccc1)Cc1ccccc1 (tested in a mixture with another compound)	inconclusive: 18.9 µM [inhibitor, partial curve]	
Cc1ccc(NC(=O)CSc2sc3c(O)cc(=O)[nH]c3c2C#N)c(F)c1	inconclusive: 21.2 µM [inhibitor, partial curve]	
Clc1nc(NC2CCCC2)nc(N2CCOCC2)n1	inconclusive: 37.7 µM [inhibitor, single point]	
COc1cc(C(C[N+](=O)[O-])c2c(C)[nH]c3ccccc23)ccc1O (stereo not given)	inconclusive: 16.8 µM [inhibitor, partial curve]	
CN(C)C(CNS(=O)(=O)c1cc([N+](=O)[O-])ccc1Cl)c1ccco1 (stereo not given)	active: 26.7 µM	
Cc1cccc(-c2nsc(SCC(=O)N3CCCC3)n2)c1	inconclusive: 26.7 µM [inhibitor, single point]	

11 of these compounds, reformatted:
SMILES | Potency | max response, negative = inhibition
CC1=C(C(=O)Nc2ccccc2)C(c2cccs2)C(C#N)=C(SCC#N)N1 (stereo not given) | inconclusive: 26.7 µM [inhibitor, single point] | 
COc1cccc(C(=O)N/N=C/c2ccc(Oc3ccc([N+](=O)[O-])cn3)c(OC)c2)c1 | inconclusive: 29.9 µM [inhibitor, partial curve] | 
CCOC(=O)c1c(C)n(-c2ccc(OC)cc2)c2ccc(O)c(CN(C)C)c12 | active: 29.9 µM | 
Cc1ccc(S(=O)(=O)Nc2cc(Cl)c(O)c3ncccc23)cc1 | inconclusive: 37.7 µM [inhibitor, single point] | 
CCOC(=O)CSc1nc(C)c2cc(C)c(C)cc2n1 |  | inactive: -21.7%
NC(=S)N/N=C/c1ccc(-n2nncc2-c2ccc(Cl)cc2)cc1 |  | inconclusive: -31.5% [inhibitor]
O=C1NC(c2ccccc2)C(C(=O)c2cccs2)C(O)(C(F)(F)F)N1 (stereo not given) |  | inactive: -6.48%
Cc1sc(NC(=O)/C=C/C(=O)O)c(C(N)=O)c1-c1ccc(C(C)(C)C)cc1 | active: 26.7 µM | 
CCCNC1(C(N)=O)CCN(Cc2ccccc2)CC1 |  | inactive: -13.3%
C[N+](C)(CCOc1ccccc1)Cc1ccccc1 (tested in a mixture with another compound) | inconclusive: 18.9 µM [inhibitor, partial curve] | 
Cc1ccc(NC(=O)CSc2sc3c(O)cc(=O)[nH]c3c2C#N)c(F)c1 | inconclusive: 21.2 µM [inhibitor, partial curve] | 
